Experimental data from patent US5145837A, “Treatment of arthritis” (Sandoz Ltd., priority 1988, dated 1992).
At least one peptide structure holds a part that was inferred or is arguable (an end, a ring closure or a residue).

Legend:
rabbit knee = experiment: Inhibition of degenerative lesion formation following partial meniscectomy in the rabbit; format: in vivo; conditions: 0.1 μg to 500 μg/kg daily over 12 weeks
[1] = test system: rheumatoid arthritis patients; experiment: Rheumatoid arthritis clinical trial 2 (six month treatment); format: in vivo, human; conditions: ca. 50 to ca. 500 μg s.c. or ca. 0.1 to 10 mg p.o. daily; compound IVa 100 to 450 μg s.c. daily
OFA or Wistar rats = experiment: Freund's adjuvant arthritis test; format: in vivo, rat; conditions: 0.1 to 500 μg/kg s.c.

With `C[C@@H](O)[C@@H]1NC(=O)[C@H](CCCCN)NC(=O)[C@@H](Cc2c[nH]c3ccccc23)NC(=O)[C@H](Cc2ccccc2)NC(=O)[C@@H](NC(=O)[C@H](N)Cc2ccccc2)CSSC[C@@H](C(=O)N[C@H](CO)[C@@H](C)O)NC1=O` [Compound IVa] the “formation of degenerative lesions induced by partial meniscectomy” value (rabbit knee) was “inhibit formation of degenerative lesions”, the “condition after the 6 months treatment period” value [1] was “exhibit improvement in condition” and the “arthritic reactions as compared with control animals” value (OFA or Wistar rats) was “reduce arthritic reactions”.
